Measurements from PMC4700559.
These are yes or no findings as the source states them, for the method shown. Binding seen in cells or lysates may run through a third protein. Binding can be weak; no strength is given.

By UniProt entry, the sequences of proteins in these tests, tags left out. Where a name states a change or a piece, a line headed by the entry shows the natural chain unless it says otherwise.
UniProt Q5TKA1: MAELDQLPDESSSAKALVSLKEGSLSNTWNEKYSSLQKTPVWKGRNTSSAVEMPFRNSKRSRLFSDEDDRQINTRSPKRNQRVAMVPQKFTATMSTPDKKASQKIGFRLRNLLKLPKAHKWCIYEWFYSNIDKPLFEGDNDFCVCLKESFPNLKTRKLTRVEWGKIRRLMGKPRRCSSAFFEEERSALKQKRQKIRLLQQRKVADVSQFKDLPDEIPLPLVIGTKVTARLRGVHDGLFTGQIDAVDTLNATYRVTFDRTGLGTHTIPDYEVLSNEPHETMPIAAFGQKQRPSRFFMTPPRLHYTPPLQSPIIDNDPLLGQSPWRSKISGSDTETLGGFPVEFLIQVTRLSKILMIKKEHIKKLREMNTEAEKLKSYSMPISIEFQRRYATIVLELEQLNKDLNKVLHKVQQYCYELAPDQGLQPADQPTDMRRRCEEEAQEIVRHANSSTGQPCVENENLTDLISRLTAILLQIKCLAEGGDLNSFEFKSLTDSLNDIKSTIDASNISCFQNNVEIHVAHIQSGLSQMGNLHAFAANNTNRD
UniProt Q08999: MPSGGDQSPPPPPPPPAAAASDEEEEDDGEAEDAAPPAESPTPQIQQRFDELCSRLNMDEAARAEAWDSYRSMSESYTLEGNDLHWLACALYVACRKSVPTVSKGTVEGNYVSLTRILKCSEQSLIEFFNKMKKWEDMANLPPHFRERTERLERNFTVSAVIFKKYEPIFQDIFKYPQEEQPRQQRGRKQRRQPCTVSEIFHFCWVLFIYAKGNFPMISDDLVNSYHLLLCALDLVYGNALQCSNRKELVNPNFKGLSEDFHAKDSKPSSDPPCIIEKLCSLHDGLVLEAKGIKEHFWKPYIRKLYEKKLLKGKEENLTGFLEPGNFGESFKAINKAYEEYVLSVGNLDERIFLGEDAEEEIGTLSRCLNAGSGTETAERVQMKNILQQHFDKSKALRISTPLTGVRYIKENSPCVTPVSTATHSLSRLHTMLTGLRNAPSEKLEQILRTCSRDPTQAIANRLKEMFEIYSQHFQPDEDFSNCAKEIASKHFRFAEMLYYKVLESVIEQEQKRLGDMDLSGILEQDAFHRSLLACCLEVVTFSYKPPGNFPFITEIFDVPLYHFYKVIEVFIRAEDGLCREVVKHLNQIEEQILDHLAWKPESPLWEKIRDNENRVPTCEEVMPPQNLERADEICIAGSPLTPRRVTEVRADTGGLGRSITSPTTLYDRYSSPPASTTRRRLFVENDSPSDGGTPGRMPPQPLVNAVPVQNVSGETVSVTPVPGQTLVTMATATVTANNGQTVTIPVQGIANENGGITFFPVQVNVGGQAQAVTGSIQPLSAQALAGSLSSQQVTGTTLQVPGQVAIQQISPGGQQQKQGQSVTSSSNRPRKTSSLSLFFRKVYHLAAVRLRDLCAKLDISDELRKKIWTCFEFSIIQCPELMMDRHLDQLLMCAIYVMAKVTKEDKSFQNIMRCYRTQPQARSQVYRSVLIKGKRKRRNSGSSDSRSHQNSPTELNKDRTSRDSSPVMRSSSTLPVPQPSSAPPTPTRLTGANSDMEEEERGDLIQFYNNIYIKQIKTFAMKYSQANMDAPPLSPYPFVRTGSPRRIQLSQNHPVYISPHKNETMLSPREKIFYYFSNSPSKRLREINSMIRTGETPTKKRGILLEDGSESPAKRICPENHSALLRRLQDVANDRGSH

Target: Lin-9 (core subunit of the DREAM complex) (human (endogenous in CaSki and T98G)) (UniProt Q5TKA1)
Test: co-IP; nuclear lysates of T98G cells transfected with HA-p130 constructs alone or together with 16E7 or 48E7, precipitated with Lin-9 antibody or pre-immune serum; HA-p130 detected on western blots

HA-tagged p130PM22 (p130 mutated at the 22 CDK phosphorylation sites) (from UniProt Q08999)
binding: binds
